Eight molecules from paper doi:10.1101/2022.02.02.478779 can be followed below.

First the molecules themselves.
T1: Pex5 (S. cerevisiae) (UniProt P35056)
T1 sequence: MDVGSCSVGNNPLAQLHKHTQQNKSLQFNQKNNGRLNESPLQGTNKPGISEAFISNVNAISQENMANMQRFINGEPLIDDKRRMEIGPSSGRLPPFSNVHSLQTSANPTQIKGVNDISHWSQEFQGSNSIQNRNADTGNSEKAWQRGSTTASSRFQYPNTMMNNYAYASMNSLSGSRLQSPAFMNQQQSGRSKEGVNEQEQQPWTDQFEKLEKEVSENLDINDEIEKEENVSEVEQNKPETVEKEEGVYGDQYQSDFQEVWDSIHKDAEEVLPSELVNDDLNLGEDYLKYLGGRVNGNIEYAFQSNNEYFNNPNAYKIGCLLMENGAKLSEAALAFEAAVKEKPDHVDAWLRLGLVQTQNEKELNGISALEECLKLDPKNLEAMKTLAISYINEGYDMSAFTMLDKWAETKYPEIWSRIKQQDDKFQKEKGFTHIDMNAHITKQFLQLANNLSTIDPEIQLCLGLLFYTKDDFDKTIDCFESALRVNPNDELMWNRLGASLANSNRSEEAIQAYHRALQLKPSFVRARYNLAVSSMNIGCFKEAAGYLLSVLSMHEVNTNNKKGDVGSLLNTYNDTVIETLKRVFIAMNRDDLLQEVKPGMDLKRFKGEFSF

T2: Pex9 (S. cerevisiae) (UniProt Q04364)
T2 sequence: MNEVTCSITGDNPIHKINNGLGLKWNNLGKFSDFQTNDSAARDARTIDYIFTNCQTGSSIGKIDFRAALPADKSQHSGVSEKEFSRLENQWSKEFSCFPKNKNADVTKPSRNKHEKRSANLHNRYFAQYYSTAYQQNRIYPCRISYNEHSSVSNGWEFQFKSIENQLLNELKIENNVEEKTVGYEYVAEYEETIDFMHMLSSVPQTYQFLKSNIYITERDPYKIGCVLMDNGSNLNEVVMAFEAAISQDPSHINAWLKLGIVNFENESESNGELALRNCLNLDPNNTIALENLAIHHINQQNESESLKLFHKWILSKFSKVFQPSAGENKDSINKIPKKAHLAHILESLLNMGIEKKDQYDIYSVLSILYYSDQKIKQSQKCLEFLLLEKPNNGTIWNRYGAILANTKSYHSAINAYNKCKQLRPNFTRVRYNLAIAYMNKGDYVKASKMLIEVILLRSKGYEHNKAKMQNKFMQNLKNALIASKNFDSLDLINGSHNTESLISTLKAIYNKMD

B1: Fsh3 (protein, UniProt Q99369 1-266)
chain: MSEKKKVLMLHGFVQSDKIFSAKTGGLRKNLKKLGYDLYYPCAPHSIDKKALFQSESEKGRDAAKEFNTSATSDEVYGWFFRNPESFNSFQIDQKVFNYLRNYVLENGPFDGVIGFSQGAGLGGYLVTDFNRILNLTDEQQPALKFFISFSGFKLEDQSYQKEYHRIIQVPSLHVRGELDEVVAESRIMALYESWPDNKRTLLVHPGAHFVPNSKPFVSQVCNWIQGITSKEGQEHNAQPEVDRKQFDKPQLEDDLLDMIDSLGKL
B2: Mls1 (enzyme, UniProt P30952 1-554)
chain: MVKVSLDNVKLLVDVDKEPFFKPSSTTVGDILTKDALEFIVLLHRTFNNKRKQLLENRQVVQKKLDSGSYHLDFLPETANIRNDPTWQGPILAPGLINRSTEITGPPLRNMLINALNAPVNTYMTDFEDSASPTWNNMVYGQVNLYDAIRNQIDFDTPRKSYKLNGNVANLPTIIVRPRGWHMVEKHLYVDDEPISASIFDFGLYFYHNAKELIKLGKGPYFYLPKMEHHLEAKLWNDVFCVAQDYIGIPRGTIRATVLIETLPAAFQMEEIIYQLRQHSSGLNCGRWDYIFSTIKRLRNDPNHILPNRNQVTMTSPFMDAYVKRLINTCHRRGVHAMGGMAAQIPIKDDPAANEKAMTKVRNDKIRELTNGHDGSWVAHPALAPICNEVFINMGTPNQIYFIPENVVTAANLLETKIPNGEITTEGIVQNLDIGLQYMEAWLRGSGCVPINNLMEDAATAEVSRCQLYQWVKHGVTLKDTGEKVTPELTEKILKEQVERLSKASPLGDKNKFALAAKYFLPEIRGEKFSEFLTTLLYDEIVSTKATPTDLSKL
B3: Afr1 (protein, UniProt P33304 1-620)
chain: MEGSYLSAQENQPIPERLIPRSNSTSNLFALSSTFSKLNVRNDADYNYSNPNKKRHIYSGEIDCRSVTAARKFPVRSCSMTAAQQRKRTALFTVRERNSYHEGFNNDQDYVSQYQKPQYTFGVYKELTPYQLQRSKMKRSFQFPNGEIYKPKLDGKCTHSLKKPELNSRDSSLFKFSEKKGRNLSKDFVGPHNGTSVIHIPPNDTGYGVNSLELNTSVPSTIKSSVSSTSPISAVNTLTSLPESQTDDDDGYENKTVTISYCFENTVNEKHGSHIEKLDLSTKEKTKPTTNSGLFDRKKKTILGTEKYRCIKSQSKLKLGSVLKKLWRTSGNSNTKHGKKDTKRRRIPIDDMVTHSDGNSEAENDIELMDANLDGIEFDDDETLMDTDSIFDDLLSKENDKYDLRRRQLEIRQKLHETSHNDDGKVSFRDTEKHNVNEGLIDKTIIEEFSKLGEYIIDTRNQPPPRSSKRPSLDDNESARYFYNISTDLRQSLSGPISLPMHVGNDMVNRLRNDWEYIRFEDRRNSLPDSSFDKVETPPKPIKKDVRFAKEVCLASTWSSNAYERANPEFIMNRHRLLWMMKVHPSMNSAMNEIKLELNSYKKNEMVVHENSKCFTHYLI
B4: Mls2 (enzyme, UniProt P21826 1-554)
chain: MVKISLDNTALYADIDTTPQFEPSKTTVADILTKDALEFIVLLHRTFNSTRKQLLANRSNLQSKLDSGEYRFDFLPETEQIRNDPTWQGAIPAPGLINRSSEITGPPLRNMLVNALNAEVTTYMTDFEDSSSPTWENMIYGQVNLYDAIRNQIDFKTPRKEYRLKDDISRLPTLIVRPRGWHMVEKHLYIDDEPISASIFDFGLYFYHNAKELVKIGKGPYFYLPKMEHHMEVKLWNDIFCVAQDFIGMPRGTIRATVLIETLPAAFQMEEIIYQIREHSSGLNCGRWDYIFSTIKKLRNLPEHVLPNRDLVTMTSPFMDAYVKRLINTCHRRGVHAMGGMAAQIPIKDDPKANEAAMNKVRNDKIREMKNGHDGSWVAHPALAPICNEVFSNMGTANQIYFVPDVHVTSSDLLNTKIQDAQVTTEGIRVNLDIGLQYMEAWLRGSGCVPINHLMEDAATAEVSRCQLYQWVKHGVVLSDTGDKVTPELTAKILNEETAKLASASPLGEKNKFALAAKYFLPEVTGKIFSDFLTTLLYDEIIKPSAKPVDLSKL
B5: Mdh3 (enzyme, UniProt P32419 1-343)
chain: MVKVAILGASGGVGQPLSLLLKLSPYVSELALYDIRAAEGIGKDLSHINTNSSCVGYDKDSIENTLSNAQVVLIPAGVPRKPGLTRDDLFKMNAGIVKSLVTAVGKFAPNARILVISNPVNSLVPIAVETLKKMGKFKPGNVMGVTNLDLVRAETFLVDYLMLKNPKIGQEQDKTTMHRKVTVIGGHSGETIIPIITDKSLVFQLDKQYEHFIHRVQFGGDEIVKAKQGAGSATLSMAFAGAKFAEEVLRSFHNEKPETESLSAFVYLPGLKNGKKAQQLVGDNSIEYFSLPIVLRNGSVVSIDTSVLEKLSPREEQLVNTAVKELRKNIEKGKSFILDSSKL

These are yes or no findings as the source states them, for the method shown. Some entries that bind do so weakly or less than the wild type.

In one experiment the target is T1, Pex5 (S. cerevisiae). In words: two-hybrid.
B1: the binding entry is recorded as “no binding”.
Still for that read-out and setting: in the case of B2 it was “no binding”.
For the molecule B3, the binding result is listed as “no binding”.
Turning to LDMIDSLGKL (peptide, UniProt Q99369 257-266) [last 10 amino acids of Fsh3 (aa257-266)], the binding result was “binds”.
The same measure, in the same setting: with B4 the entry was “no binding”; with KATPTDLSKL (peptide, UniProt P30952 545-554) [last 10 amino acids of Mls1 (aa545-554)], “binds”.

The next experiment deals with T2, Pex9 (S. cerevisiae). Kind of experiment: two-hybrid.
On to B1, for which the binding result is on record as “binds”.
Still for that read-out and setting: with B2 the entry was “binds”; with B3, “no binding”.
On the same count and under the same terms, in the case of B4 it was “binds”; in that of KSFILDSSKL (peptide, UniProt P32419 334-343) [last 10 amino acids of Mdh3 (aa334-343)], “binds”.
For the molecule B5, the binding result is on record as “no binding”.
